These are yes or no findings as the source states them, for the method shown. Binding seen in cells or lysates may run through a third protein. Some binding calls cover weakened binding; strength is not graded here.

This test concerns the target T1, Drosophila Mnat9 (microtubule-associated N-acetyltransferase) (Drosophila) (UniProt Q9V9V9).
T1 sequence: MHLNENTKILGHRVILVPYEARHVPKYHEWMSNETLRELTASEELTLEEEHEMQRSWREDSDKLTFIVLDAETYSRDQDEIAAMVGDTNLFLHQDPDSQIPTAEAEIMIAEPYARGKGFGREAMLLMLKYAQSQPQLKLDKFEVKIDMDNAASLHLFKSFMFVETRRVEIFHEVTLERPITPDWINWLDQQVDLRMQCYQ
Kind of test: co-IP; Drosophila S2 cell lysate (HEPES buffer, 0.5% CHAPS, protease and phosphatase inhibitors); beads with anti-Mnat9 antibody (1:100) or control rabbit IgG, incubated with sample 2 h at 4 °C, washed at least four times; blot with anti-Mer.

B1: Merlin (Mer) (protein, UniProt Q24564 1-635)
chain: MSPFGSKKNRSLSVRVSTFDSELEFKLEPRASGQDLFDLVCRTIGLRESWYFGLQYVDTRSNVSWLKMEKRVRDQRVELHASNNVYVFSFYAKFFPENVSEELIQEITQHLFFLQVKQSILSMDIYCRPEASVLLASYAVHVQYGPYDYETYKDGMLAGGELLPKGVTDQYQMTPEMWEERIKTWYMDHEPMTRDEVEMEYLKIAQDLDMYGVNYFPITNKNKTKLWLGVTSVGLNIYDERDKLTPKTTFQWNEIRHVSFDDKKFTIRLVDAKVSNFIFYSQDLHINKMILDLCKGNHDLYMRRRKPDTMEIQQMKAQAKEEKQRRQIERKKFIREKKLREKAEHERYELEKSMEHLQNEMRMANDALRRSEETKELYFEKSRVNEEQMQLTECKANHFKTEMDRLRERQMKIEREKHDLEKKIRDADFYVHQLTVENDKREAETEKLRKELICAKMAEREATARLLEFLNSGRKSSTDSLLTASSVSHAANTASSMAAISTPSLITSSSTNDLETAGGAELTTHSSHYLVQGDNSSGISDDFEPKEFILTDNEMEQITNEMERNHLDYLRNSKQVQSQLQTLRSEIAPHKIEENQSNLDILSEAQIKAGENKYSTLKKLKSGSTKARVAFFEEL
In the case of B1, the binding result was “binds”.

For the origin of these results see PMC8810759.
